From publication PMC10094709 come the findings set out here.

The chains behind the UniProt entries cited, without tags or fusion partners.
UniProt O88939: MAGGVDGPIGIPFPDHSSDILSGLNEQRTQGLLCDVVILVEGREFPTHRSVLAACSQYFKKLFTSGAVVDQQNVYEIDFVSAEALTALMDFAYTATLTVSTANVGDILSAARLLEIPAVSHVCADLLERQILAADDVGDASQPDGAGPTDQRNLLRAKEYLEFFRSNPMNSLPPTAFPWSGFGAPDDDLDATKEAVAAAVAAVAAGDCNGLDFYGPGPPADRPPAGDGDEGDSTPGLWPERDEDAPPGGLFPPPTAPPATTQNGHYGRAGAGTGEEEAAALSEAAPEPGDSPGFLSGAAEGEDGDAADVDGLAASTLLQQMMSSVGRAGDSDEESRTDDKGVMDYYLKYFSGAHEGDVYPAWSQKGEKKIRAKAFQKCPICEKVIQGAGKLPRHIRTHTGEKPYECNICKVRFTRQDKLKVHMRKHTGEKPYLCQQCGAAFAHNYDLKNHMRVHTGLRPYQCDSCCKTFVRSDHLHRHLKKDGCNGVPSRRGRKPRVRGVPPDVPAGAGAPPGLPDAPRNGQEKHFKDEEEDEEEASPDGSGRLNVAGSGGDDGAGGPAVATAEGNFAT
UniProt O95365: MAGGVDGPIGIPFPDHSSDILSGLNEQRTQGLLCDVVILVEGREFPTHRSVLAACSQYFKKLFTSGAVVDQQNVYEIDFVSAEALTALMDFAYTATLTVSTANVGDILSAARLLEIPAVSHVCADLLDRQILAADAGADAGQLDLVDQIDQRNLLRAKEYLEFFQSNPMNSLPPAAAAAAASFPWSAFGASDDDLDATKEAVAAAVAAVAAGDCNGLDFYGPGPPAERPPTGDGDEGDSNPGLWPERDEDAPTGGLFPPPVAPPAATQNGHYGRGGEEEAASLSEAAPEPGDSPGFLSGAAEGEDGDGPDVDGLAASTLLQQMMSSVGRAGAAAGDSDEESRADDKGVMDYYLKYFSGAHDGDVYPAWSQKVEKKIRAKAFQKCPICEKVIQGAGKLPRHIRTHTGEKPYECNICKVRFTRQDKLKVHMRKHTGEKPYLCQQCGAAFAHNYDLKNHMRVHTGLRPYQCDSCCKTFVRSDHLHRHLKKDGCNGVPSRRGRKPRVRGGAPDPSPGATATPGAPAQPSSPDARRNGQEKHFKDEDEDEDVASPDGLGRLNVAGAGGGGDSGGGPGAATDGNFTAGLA

Results are given in words; binding and its absence hold for the method and conditions named. Binding seen in cells or lysates may run through a third protein. Some binding calls cover weakened binding; strength is not graded here. For some of these results: Tags and fused reporters may be left off the sequences shown.

The target in experiment [1] is T1, V5-tagged human TG2 (transglutaminase 2) (human) (UniProt P21980).
T1 sequence: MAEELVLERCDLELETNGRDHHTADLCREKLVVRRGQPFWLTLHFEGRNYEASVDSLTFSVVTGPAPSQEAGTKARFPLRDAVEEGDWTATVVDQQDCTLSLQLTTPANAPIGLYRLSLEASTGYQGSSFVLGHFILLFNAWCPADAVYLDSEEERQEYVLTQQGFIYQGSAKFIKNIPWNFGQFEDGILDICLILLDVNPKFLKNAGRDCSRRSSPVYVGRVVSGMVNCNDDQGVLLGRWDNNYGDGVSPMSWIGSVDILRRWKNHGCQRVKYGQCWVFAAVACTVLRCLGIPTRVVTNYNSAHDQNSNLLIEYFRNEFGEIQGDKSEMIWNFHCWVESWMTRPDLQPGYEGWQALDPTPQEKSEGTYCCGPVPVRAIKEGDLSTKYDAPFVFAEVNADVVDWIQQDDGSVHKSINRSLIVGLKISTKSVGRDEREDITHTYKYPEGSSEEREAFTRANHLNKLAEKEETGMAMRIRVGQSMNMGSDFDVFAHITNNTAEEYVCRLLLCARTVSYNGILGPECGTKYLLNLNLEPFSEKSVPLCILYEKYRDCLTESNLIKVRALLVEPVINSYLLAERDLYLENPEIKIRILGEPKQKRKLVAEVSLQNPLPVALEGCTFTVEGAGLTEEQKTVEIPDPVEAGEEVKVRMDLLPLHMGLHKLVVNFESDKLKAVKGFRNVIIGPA
The experiment is described as follows: co-IP; HEK293TN cells co-transfected with V5-TG2 and FLAG/Myc-Zbtb7a, lysed after 24 h in IP lysis buffer (150 mM NaCl, 50 mM Tris-HCl, 1 mM EDTA, 1 mM EGTA, 0.5% NP-40 in PBS); 500 ug lysate; IP with rabbit anti-V5 antibody and protein A/G magnetic agarose, 4 C; immunoblot; the reverse IP is in Figure S4. On the technique in general: Immunoblotting shows a protein as a band on a membrane.

For experiment [2], the target named is T2, endogenous TG2 (transglutaminase 2) of mouse astrocytes (mouse (endogenous in primary astrocytes)) (UniProt P21981).
T2 sequence: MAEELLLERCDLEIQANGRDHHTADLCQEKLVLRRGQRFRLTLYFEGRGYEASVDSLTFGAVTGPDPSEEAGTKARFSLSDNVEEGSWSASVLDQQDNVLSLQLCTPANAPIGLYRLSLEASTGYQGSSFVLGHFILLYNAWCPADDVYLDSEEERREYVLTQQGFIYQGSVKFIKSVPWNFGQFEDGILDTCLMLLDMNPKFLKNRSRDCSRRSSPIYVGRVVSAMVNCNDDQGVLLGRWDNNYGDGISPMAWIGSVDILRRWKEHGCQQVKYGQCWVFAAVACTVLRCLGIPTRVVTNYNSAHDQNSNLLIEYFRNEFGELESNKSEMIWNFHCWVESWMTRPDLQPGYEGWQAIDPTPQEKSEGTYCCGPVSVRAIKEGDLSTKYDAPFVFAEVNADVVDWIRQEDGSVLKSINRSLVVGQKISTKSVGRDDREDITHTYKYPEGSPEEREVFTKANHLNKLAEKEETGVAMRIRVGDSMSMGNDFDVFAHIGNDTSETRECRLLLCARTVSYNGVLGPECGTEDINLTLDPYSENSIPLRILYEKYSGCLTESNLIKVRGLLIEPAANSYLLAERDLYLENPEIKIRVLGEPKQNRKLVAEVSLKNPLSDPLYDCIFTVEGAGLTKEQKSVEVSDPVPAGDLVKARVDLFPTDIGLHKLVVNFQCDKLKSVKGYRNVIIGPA
The experiment is described as follows: co-IP; nuclear fractions of WT mouse astrocytes (NE-PER kit), 110 ug nuclear protein; IP with mouse anti-TG2 or hamster anti-Zbtb7a antibody and protein L magnetic agarose, 4 C; IgG control; immunoblot.

Experiment [3] deals with endogenous Zbtb7a of mouse astrocytes (mouse (endogenous in primary astrocytes)) (UniProt O88939). The description is as above.
Experiment [4] addresses FLAG/Myc-tagged Zbtb7a (UniProt O95365). The experiment is described as follows: co-IP; HEK293TN cells co-transfected with V5-TG2 and FLAG/Myc-Zbtb7a, lysed after 24 h in IP lysis buffer (150 mM NaCl, 50 mM Tris-HCl, 1 mM EDTA, 1 mM EGTA, 0.5% NP-40 in PBS); 500 ug lysate; IP with rabbit anti-V5 antibody and protein A/G magnetic agarose, 4 C; immunoblot; the reverse IP is in Figure S4.

Take “FLAG/Myc-tagged Zbtb7a (from UniProt O95365 1-584)”: the binding result in experiment [1] is “binds”. “endogenous Zbtb7a of mouse astrocytes (from UniProt O88939 1-569)”: the binding result in experiment [2] is “binds”.

B1: endogenous TG2 (transglutaminase 2) of mouse astrocytes (enzyme, UniProt P21981 1-686)
chain: MAEELLLERCDLEIQANGRDHHTADLCQEKLVLRRGQRFRLTLYFEGRGYEASVDSLTFGAVTGPDPSEEAGTKARFSLSDNVEEGSWSASVLDQQDNVLSLQLCTPANAPIGLYRLSLEASTGYQGSSFVLGHFILLYNAWCPADDVYLDSEEERREYVLTQQGFIYQGSVKFIKSVPWNFGQFEDGILDTCLMLLDMNPKFLKNRSRDCSRRSSPIYVGRVVSAMVNCNDDQGVLLGRWDNNYGDGISPMAWIGSVDILRRWKEHGCQQVKYGQCWVFAAVACTVLRCLGIPTRVVTNYNSAHDQNSNLLIEYFRNEFGELESNKSEMIWNFHCWVESWMTRPDLQPGYEGWQAIDPTPQEKSEGTYCCGPVSVRAIKEGDLSTKYDAPFVFAEVNADVVDWIRQEDGSVLKSINRSLVVGQKISTKSVGRDDREDITHTYKYPEGSPEEREVFTKANHLNKLAEKEETGVAMRIRVGDSMSMGNDFDVFAHIGNDTSETRECRLLLCARTVSYNGVLGPECGTEDINLTLDPYSENSIPLRILYEKYSGCLTESNLIKVRGLLIEPAANSYLLAERDLYLENPEIKIRVLGEPKQNRKLVAEVSLKNPLSDPLYDCIFTVEGAGLTKEQKSVEVSDPVPAGDLVKARVDLFPTDIGLHKLVVNFQCDKLKSVKGYRNVIIGPA
In the case of B1, the binding result in experiment [3] is recorded as “binds”.

B2: V5-tagged human TG2 (transglutaminase 2) (enzyme, UniProt P21980 1-687)
chain: MAEELVLERCDLELETNGRDHHTADLCREKLVVRRGQPFWLTLHFEGRNYEASVDSLTFSVVTGPAPSQEAGTKARFPLRDAVEEGDWTATVVDQQDCTLSLQLTTPANAPIGLYRLSLEASTGYQGSSFVLGHFILLFNAWCPADAVYLDSEEERQEYVLTQQGFIYQGSAKFIKNIPWNFGQFEDGILDICLILLDVNPKFLKNAGRDCSRRSSPVYVGRVVSGMVNCNDDQGVLLGRWDNNYGDGVSPMSWIGSVDILRRWKNHGCQRVKYGQCWVFAAVACTVLRCLGIPTRVVTNYNSAHDQNSNLLIEYFRNEFGEIQGDKSEMIWNFHCWVESWMTRPDLQPGYEGWQALDPTPQEKSEGTYCCGPVPVRAIKEGDLSTKYDAPFVFAEVNADVVDWIQQDDGSVHKSINRSLIVGLKISTKSVGRDEREDITHTYKYPEGSSEEREAFTRANHLNKLAEKEETGMAMRIRVGQSMNMGSDFDVFAHITNNTAEEYVCRLLLCARTVSYNGILGPECGTKYLLNLNLEPFSEKSVPLCILYEKYRDCLTESNLIKVRALLVEPVINSYLLAERDLYLENPEIKIRILGEPKQKRKLVAEVSLQNPLPVALEGCTFTVEGAGLTEEQKTVEIPDPVEAGEEVKVRMDLLPLHMGLHKLVVNFESDKLKAVKGFRNVIIGPA
Regarding B2, the binding entry in experiment [4] is given as “binds”.
